This passage reports binding results from article PMC12698754.

Chains of the proteins cited; added tags and fusions are not shown.
UniProt P46379: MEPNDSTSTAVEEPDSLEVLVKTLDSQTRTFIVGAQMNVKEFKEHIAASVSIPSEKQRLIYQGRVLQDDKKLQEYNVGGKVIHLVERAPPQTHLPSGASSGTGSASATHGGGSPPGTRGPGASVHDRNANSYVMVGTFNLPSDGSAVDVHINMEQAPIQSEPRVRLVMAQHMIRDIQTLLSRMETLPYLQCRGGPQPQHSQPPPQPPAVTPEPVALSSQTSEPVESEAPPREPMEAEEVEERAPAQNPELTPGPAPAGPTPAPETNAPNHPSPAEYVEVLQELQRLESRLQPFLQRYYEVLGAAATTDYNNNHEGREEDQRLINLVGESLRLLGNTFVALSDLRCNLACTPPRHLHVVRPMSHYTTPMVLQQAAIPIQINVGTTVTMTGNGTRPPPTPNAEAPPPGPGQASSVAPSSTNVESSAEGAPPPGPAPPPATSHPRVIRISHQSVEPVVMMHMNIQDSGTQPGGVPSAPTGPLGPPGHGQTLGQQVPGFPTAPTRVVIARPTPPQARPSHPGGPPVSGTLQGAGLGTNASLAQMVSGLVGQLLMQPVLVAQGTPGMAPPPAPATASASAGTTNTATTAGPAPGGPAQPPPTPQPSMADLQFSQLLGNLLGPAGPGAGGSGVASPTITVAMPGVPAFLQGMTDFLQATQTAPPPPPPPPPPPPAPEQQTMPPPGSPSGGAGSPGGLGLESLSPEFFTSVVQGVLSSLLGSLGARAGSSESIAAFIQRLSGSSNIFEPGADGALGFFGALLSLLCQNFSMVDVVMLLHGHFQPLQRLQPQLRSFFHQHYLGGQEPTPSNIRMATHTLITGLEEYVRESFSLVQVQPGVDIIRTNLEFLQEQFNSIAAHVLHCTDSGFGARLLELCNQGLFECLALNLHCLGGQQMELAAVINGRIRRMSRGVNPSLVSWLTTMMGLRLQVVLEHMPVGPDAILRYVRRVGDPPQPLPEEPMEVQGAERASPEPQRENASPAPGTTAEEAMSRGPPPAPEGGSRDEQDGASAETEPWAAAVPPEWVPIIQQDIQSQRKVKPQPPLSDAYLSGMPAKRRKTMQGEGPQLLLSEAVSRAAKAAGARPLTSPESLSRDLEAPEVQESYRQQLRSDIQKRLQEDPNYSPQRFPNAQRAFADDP

Results are given in words; binding and its absence hold for the method and conditions named. Binding seen in cells or lysates may run through a third protein. These calls come from enrichment with a bait or labelling near it, and not all partners need be listed.

The target in the assay is T1, RAB3A (bait of the mass spectrometry experiment and of the Co-IP assays of Fig. S7; construct not told) (UniProt P20336).
T1 sequence: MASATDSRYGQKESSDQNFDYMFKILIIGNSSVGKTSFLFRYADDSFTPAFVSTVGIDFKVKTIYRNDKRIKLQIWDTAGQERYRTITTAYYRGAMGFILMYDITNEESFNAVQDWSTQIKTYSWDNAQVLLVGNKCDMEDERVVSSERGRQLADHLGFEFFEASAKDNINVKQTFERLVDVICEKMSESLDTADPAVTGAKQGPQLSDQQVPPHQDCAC
The assay is described as follows: affinity purification with mass spectrometry; immunoprecipitates of RAB3A from the indicated stable cells sent for mass spectrometry analysis.

Consider “BAG6 (endogenous) (from UniProt P46379 1-1132)”, for which the binding result is listed as “binds”.
